No constants are given. Whether binding was seen depends on the method and setting. Some results given as binding are weak or reduced against the parent protein; the word gives no strength.
How the values were obtained:
[1] = biological target: human IL2Rα (generated from SEQ ID NO: 182) (human); experiment: ELISA
[2] = biological target: human PD1L1 (generated from SEQ ID NO: 178) (human); experiment: ELISA

binding [1]	binding [2]	Substance
binds	binds	Multispecific molecule 8 (from UniProt P0DOX7 1-214; P0DOX8 1-216)
	binds	Multispecific molecule 9 (from UniProt P0DOX7 1-214; P0DOX5 1-449; P0DOX8 1-216)
binds	binds	Multispecific molecule 12 (from UniProt P0DOX7 1-214; P0DOX8 1-216)

Further lines, the substance ahead of its results:

Substance	binding [1]	binding [2]
Multispecific molecule 10 (from UniProt P0DOX7 1-214; P0DOX8 1-216)	binds	binds
Multispecific molecule 11 (from UniProt P0DOX7 1-214; P0DOX5 1-449; P0DOX8 1-216)		binds

From patent US20170368169A1
